US20180258381A1, “BIO-LAMINA BIOREACTORS AND METHODS OF MAKING AND USING THE SAME” (Oregon State University, priority 2015, published 2018)

Test system: OB3b expressing sMMO
Assay: Packed bed reactor with cyclopropane inhibitor
Type: cell-based, Methylosinus trichosporium (OB3b)
Protocol: A Packed Bed Reactor was used to evaluate the conversion of methane to methanol by cell of OB3b expressing sMMO. […] Cyclopropanol is expected to be produced via oxidation of cyclopropane by MMO in this example.
A continuous flow PBR was constructed using a glass HPLC column with the dimensions 2.5 cm ID and 13 cm packing height. Methane, oxygen, and the inhibitor feed solutions dissolved in media were contained within the two 100 mL syringes. The column was packed with alginate beads with sMMO-expressing OB3b formed in-situ under aseptic conditions Immobilized culture performance was evaluated in the PBR over a range of flow rates to achieve reactor residence times (τ) ranging from 0.2, 0.3, 0.5, and 8.5 hours. Two separate experiments were carried out, one for methane transformation (conversion) without the cyclopropane inhibitor and the other with the inhibitor (FIG. 26). For the methane utilization studies, the influent solution was developed by adding 7 mL methane and 21 mL oxygen to the 100 ml syringes. For the inhibition studies 1 ml of cyclopropane was added. After equilibration for 20 minutes, the gases were ejected from the syringes, and the syringes connected to the column inlet.
An integrated form of the Monod equation was used to analyze the results from the PBR experiment. […]

`C1CC1` [CP, cyclopropane] was tested, and the Cyclopropane conversion (after about 4 hours residence time) was “about 17%±32%” and the Cyclopropane conversion (τ of 8 hours) was 67±3%.
